Measured values published in article PMC8427973, “Regulation of the HTRA2 Protease Activity by an Inhibitory Antibody-Derived Peptide Ligand and the Influence on HTRA2-Specific Protein Interaction Networks in Retinal Tissues” (Biomedicines, 2021).

System: recombinant 6xHis-tag HTRA2 and its protein interaction partners in homogenized porcine retina
Test: Co-immunoprecipitation (Co-IP) of HTRA2 protein interaction partners, quantitative LC-MS/MS (iBAQ, volcano plot vs CTRL beads)
Parameters: species or system house swine (Sus scrofa)
Conditions: 5 mg porcine retina homogenate, 2 µg HTRA2 + 10 µg compound, n = 3, p < 0.01; log2 fold change > 1.5 vs CTRL; HTRA2 alone 31
Protocol: The retina extraction and homogenization were performed as already described in previous publications. The use of animal by-products of house swine for scientific research purposes was approved by the Kreisverwaltung Mainz-Bingen in Germany (Identification Code: DE 07 315 0006 21, approved on 13 January 2014). In brief, retinal tissues were extracted from freshly removed porcine eye bulbs (house swine, Sus scrofa domestica Linnaeus, n = 30) provided by the local slaughterhouses (Landmetzgerei Harth, Stadecken-Elsheim, Germany). […] Afterwards, the samples were pooled and the protein concentration was determined using a Pierce Bicinchoninic Acid (BCA) Protein Assay Kit (Thermo Fisher Scientific, Rockford, IL, USA) according to the manufacturer’s protocol, which provided 5 mg aliquots for further analysis.
The recombinant protein HTRA2 with a C-terminal 6xHis-tag motif (Novoprotein Scientific INC., Summit, NJ, USA) and 40 μL HisPurTM Ni-NTA magnetic beads (Thermo Fisher Scientific, Rockford, IL, USA) were spiked into 5 mg homogenized porcine retina. […] The protein concentration of each eluate fraction was determined as described above. […]

Compound	Number of significant protein interaction partners of HTRA2
O=C1C(=Cc2ccc(-c3ccccc3[N+](=O)[O-])o2)C(=O)N(c2ccccc2)C(=S)N1c1ccccc1 [UCF-101, reference compound]	13
ASGYTFTNYGLSWVR [CDR, synthetic peptide encoding a complementary-determining region 1 (CDR1) of polyclonal antibody molecules]	23
